# In the supplement of paper PMC8728848:
# The list shows a part of the results.
# B1: TAL6-6LysM (Trichoderma atroviride) (protein)
# chain: AASKLGVPQPAQRDQVNCQLYAVQPNDNCIDISSKNNITYAQLLSWNPSLSSTCSNLASLNSSSICVSNPKGTFSISSNTVGATDIATTTAPVPSPTLDQTTSRCAKYYQVSDGDDCSHLTAQFAITLKDFIFLNSEVWQNCTNLELGYYYCVEPVGYISTYPGYLPTATTKPFNQTSATSLPYDGDPWARFSSNSSVIPIANGTRVDCYSYVYVKNLTENLFADCWNMASMYEITREELVLWNPSLGNDGSSGSNLSGAEASQVASSIAIPTTAPSSITTNLYTYPCTVAANISYCVALVSSTGALPTNTAPPGPHASGEISNCTAWFAPEAYDTCKSILDIFEMSFANFYKMNPSVGPDCSGLAVGTNYCVSTYPNGEDPNDDWDGDDSIPSISPTGIITPTPTQSGMVSNCNKFYDVHSNDGCSAIASSQHVDLSSLYKWNPAIKTDCSGLQASVYVCIGILTTSMSTTSKLPTTTSKPSTTSKPPTGITTPTPTQSGMVKNCNKFYDVHSGDGCSAIASSQKVNLSSFYLWNPAVKTDCSGLQASVFVCIGTLTTSMSTTTSKLPTTTSKPSTTSKPPTGIITPTPTQNGMVKNCNKFYDVHSGDGCSAIASSQKVNLSSFYLWNPAVKTDCSGLQASVFVCVGTATTTTAAGITTPTPTQSGMVSGCNKFYDVHAGDGCSAIASSQKIALSSLYKWNPAVKTDCSGLQASVYICIGVGNAAAARVTGAAASFLEQKLISEEDLNSAVDHHHHHH
# Assays:
# Assay in all cases: glycan array binding signal (z-score within array); higher = stronger binding
# Settings in all cases: glycan notation: IUPAC condensed, linker removed
# [1] = molecular target: Gal(a1-3)Gal(b1-4)GlcNAc(b1-2)Man
# How it was run: (§1)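 The binding signal is a Z-score computed within each array. Data were drawn from 3228 arrays in the Consortium for Functional Glycomics database, restricted to those with a known protein sequence. Scores were averaged over arrays of the same protein sequence at different concentrations or buffers, and over linkers, and negative values can be taken as non-binding.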
# [2] = molecular target: Gal(a1-3)Gal(b1-4)GlcNAc(b1-2)Man(a1-3)[Gal(a1-3)Gal(b1-4)GlcNAc(b1-2)Man(a1-6)]Man(b1-4)GlcNAc(b1-4)GlcNAc
# How it was run: as §1
# [3] = molecular target: Gal(a1-3)Gal(b1-4)GlcNAc(b1-3)GalNAc
# How it was run: as §1
# [4] = molecular target: Gal(a1-3)Gal(b1-4)GlcNAc(b1-6)GalNAc
# How it was run: as §1
# [5] = molecular target: Gal(a1-3)Gal(b1-4)[Fuc(a1-3)]GlcNAc
# How it was run: as §1
# [6] = molecular target: Gal(a1-3)Gal(b1-4)[Fuc(a1-3)]GlcNAc(b1-2)Man(a1-3)[Gal(a1-3)Gal(b1-4)[Fuc(a1-3)]GlcNAc(b1-2)Man(a1-6)]Man(b1-4)GlcNAc(b1-4)GlcNAc
# How it was run: as §1
# Gal(a1-3)GalNAc = molecular target: Gal(a1-3)GalNAc
# How it was run: as §1
# [7] = molecular target: Gal(a1-3)[Gal(a1-4)]Gal(b1-4)GlcNAc
# How it was run: as §1
# [8] = molecular target: Gal(a1-4)Gal(b1-3)GlcNAc(b1-2)Man(a1-3)[Gal(a1-4)Gal(b1-3)GlcNAc(b1-2)Man(a1-6)]Man(b1-4)GlcNAc(b1-4)GlcNAc
# How it was run: as §1
# Gal(a1-4)Gal(b1-4)Glc = molecular target: Gal(a1-4)Gal(b1-4)Glc
# How it was run: as §1
# Gal(a1-4)Gal(b1-4)GlcNAc = molecular target: Gal(a1-4)Gal(b1-4)GlcNAc
# How it was run: as §1
# [9] = molecular target: Gal(a1-4)Gal(b1-4)GlcNAc(b1-2)Man(a1-3)[Gal(a1-4)Gal(b1-4)GlcNAc(b1-2)Man(a1-6)]Man(b1-4)GlcNAc(b1-4)GlcNAc
# How it was run: as §1
# [10] = molecular target: Gal(a1-4)Gal(b1-4)GlcNAc(b1-3)Gal(b1-4)Glc
# How it was run: as §1
# Gal(a1-4)GlcNAc = molecular target: Gal(a1-4)GlcNAc
# How it was run: as §1
# Gal(a1-6)Glc = molecular target: Gal(a1-6)Glc
# How it was run: as §1
# Gal(b1-2)Gal = molecular target: Gal(b1-2)Gal
# How it was run: as §1
# Gal(b1-3)Gal = molecular target: Gal(b1-3)Gal
# How it was run: as §1
# Gal(b1-3)Gal(b1-4)GlcNAc = molecular target: Gal(b1-3)Gal(b1-4)GlcNAc
# How it was run: as §1
# Gal(b1-3)GalNAc = molecular target: Gal(b1-3)GalNAc
# How it was run: as §1
# [11] = molecular target: Gal(b1-3)GalNAc(a1-3)[Fuc(a1-2)]Gal(b1-4)Glc
# How it was run: as §1
# [12] = molecular target: Gal(b1-3)GalNAc(a1-3)[Fuc(a1-2)]Gal(b1-4)GlcNAc
# How it was run: as §1
# Gal(b1-3)GalNAc(b1-3)Gal = molecular target: Gal(b1-3)GalNAc(b1-3)Gal
# How it was run: as §1
# [13] = molecular target: Gal(b1-3)GalNAc(b1-3)Gal(a1-4)Gal(b1-4)Glc
# How it was run: as §1
# [14] = molecular target: Gal(b1-3)GalNAc(b1-4)Gal(b1-4)Glc
# How it was run: as §1
# [15] = molecular target: Gal(b1-3)GalNAc(b1-4)[Neu5Ac(a2-3)]Gal(b1-4)Glc
# How it was run: as §1
# Gal(b1-3)GlcNAc = molecular target: Gal(b1-3)GlcNAc
# How it was run: as §1
# [16] = molecular target: Gal(b1-3)GlcNAc(a1-3)Gal(b1-4)GlcNAc
# How it was run: as §1
# [17] = molecular target: Gal(b1-3)GlcNAc(a1-6)Gal(b1-4)GlcNAc
# How it was run: as §1
# Gal(b1-3)GlcNAc(b1-2)Man = molecular target: Gal(b1-3)GlcNAc(b1-2)Man
# How it was run: as §1
# [18] = molecular target: Gal(b1-3)GlcNAc(b1-2)Man(a1-3)[Gal(b1-3)GlcNAc(b1-2)Man(a1-6)]Man(b1-4)GlcNAc(b1-4)GlcNAc
# How it was run: as §1
binder,measurement,setting,value
B1,glycan array binding signal (z-score),[1],0.538
same,glycan array binding signal (z-score),[2],0.08
same,glycan array binding signal (z-score),[3],-1.02
same,glycan array binding signal (z-score),[4],-0.542
same,glycan array binding signal (z-score),[5],-0.418
same,glycan array binding signal (z-score),[6],-0.687
same,glycan array binding signal (z-score),Gal(a1-3)GalNAc,0.187
same,glycan array binding signal (z-score),[7],0.465
same,glycan array binding signal (z-score),[8],-0.972
same,glycan array binding signal (z-score),Gal(a1-4)Gal(b1-4)Glc,2.69
same,glycan array binding signal (z-score),Gal(a1-4)Gal(b1-4)GlcNAc,0.405
same,glycan array binding signal (z-score),[9],-0.586
same,glycan array binding signal (z-score),[10],-0.008
same,glycan array binding signal (z-score),Gal(a1-4)GlcNAc,-1.6
same,glycan array binding signal (z-score),Gal(a1-6)Glc,0.525
same,glycan array binding signal (z-score),Gal(b1-2)Gal,-0.67
same,glycan array binding signal (z-score),Gal(b1-3)Gal,-0.192
same,glycan array binding signal (z-score),Gal(b1-3)Gal(b1-4)GlcNAc,0.459
same,glycan array binding signal (z-score),Gal(b1-3)GalNAc,-0.343
same,glycan array binding signal (z-score),[11],-2.15
same,glycan array binding signal (z-score),[12],-0.299
same,glycan array binding signal (z-score),Gal(b1-3)GalNAc(b1-3)Gal,-1.58
same,glycan array binding signal (z-score),[13],-0.337
same,glycan array binding signal (z-score),[14],-0.503
same,glycan array binding signal (z-score),[15],-0.687
same,glycan array binding signal (z-score),Gal(b1-3)GlcNAc,-0.122
same,glycan array binding signal (z-score),[16],0.95
same,glycan array binding signal (z-score),[17],-1.17
same,glycan array binding signal (z-score),Gal(b1-3)GlcNAc(b1-2)Man,3.66
same,glycan array binding signal (z-score),[18],0.699

# Not a retest: entries from further up.
binder,measurement,setting,value
B1,glycan array binding signal (z-score),[5],-0.418
same,glycan array binding signal (z-score),[6],-0.687
